Reference: publication PMC4818781 (EMBO Reports, 2016)
Substitutions are numbered along the chain they refer to. These are yes or no findings as the source states them, for the method shown. For some assays here: In cells and extracts the contact can be indirect. Some entries that bind do so weakly or less than the wild type. For some assays here: Tags and fused reporters may be left off the sequences shown. Each block holds one molecule with its values, some of them ahead of it.

Protein sequences, listed by entry. Tags and fused reporters are not part of them. Residues count along the entry.
UniProt O43482, residues 56-183: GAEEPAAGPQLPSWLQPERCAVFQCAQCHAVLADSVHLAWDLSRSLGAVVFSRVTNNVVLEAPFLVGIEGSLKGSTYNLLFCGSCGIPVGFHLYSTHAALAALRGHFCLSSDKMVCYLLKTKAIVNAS

What was measured:
[1] = molecular target: hsMis18β_(56–183), Yippee‐like globular domain of human Mis18β (human) (UniProt O43482); assay: SEC-MALS; room temperature; 100 μl of protein at 1 mg/ml; 50 mM HEPES pH 8, 150 mM NaCl, 5 mM DTT; elution volumes of SEC also told; both purified
[2] = molecular target: T1, endogenous spMis18fl with a C‐terminal 8xMyc tag (Schizosaccharomyces pombe) (UniProt Q9P802); assay: co-IP; S. pombe cells grown 21 h without thiamine; immunoprecipitation with anti-myc A14, blot with anti-GFP and anti-myc
T1 sequence: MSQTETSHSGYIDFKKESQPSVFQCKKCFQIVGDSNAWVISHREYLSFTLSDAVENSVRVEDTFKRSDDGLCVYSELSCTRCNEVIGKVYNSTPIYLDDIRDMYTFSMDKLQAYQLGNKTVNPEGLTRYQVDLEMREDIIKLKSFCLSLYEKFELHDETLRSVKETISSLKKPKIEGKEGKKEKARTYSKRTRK

[3] = molecular target: T2, His‐GFP‐spMis18_(C‐term‐α), C‐terminal α‐helical domain of S. pombe Mis18 (Schizosaccharomyces pombe) (UniProt Q9P802); assay: SEC; equimolar mixture of the two purified proteins on Superdex 200 increase 10/300; 20 mM Tris pH 8, 150 mM NaCl, 2 mM DTT; fractions on SDS-PAGE; both purified
T2 sequence: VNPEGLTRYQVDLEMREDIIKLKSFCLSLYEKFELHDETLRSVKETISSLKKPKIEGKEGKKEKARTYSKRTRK

binding [3]: no binding
B2: His‐spMis18_(1–120), N‐terminal Yippee‐like globular domain of S. pombe Mis18 (domain or fragment, Schizosaccharomyces pombe, UniProt Q9P802 1-120, looked up)
chain: MSQTETSHSGYIDFKKESQPSVFQCKKCFQIVGDSNAWVISHREYLSFTLSDAVENSVRVEDTFKRSDDGLCVYSELSCTRCNEVIGKVYNSTPIYLDDIRDMYTFSMDKLQAYQLGNKT

binding [2]: binds
B3: His‐GFP‐spMis18fl, recombinant full‐length S. pombe Mis18 (natural protein, Schizosaccharomyces pombe, UniProt Q9P802 1-194, looked up)
chain: T1 sequence

Continued, molecule first:

Molecule: hsMis18β_(56–183), Yippee‐like globular domain of human Mis18β (from UniProt O43482 56-183) (domain or fragment)
binding [1]: no binding (tested: 1 mg/ml loaded)

B1: spMis18_(MeDiY)‐GFP, ectopically expressed (domain or fragment, UniProt Q9P802 1-120)
chain: B2 chain
binding [2]: binds

B4: spMis18flI31A‐GFP, ectopically expressed (protein, UniProt Q9P802 1-194)
chain: T1 sequence with I31A
binding [2]: binds
